Measured values published in the supplement of paper PMC6411743.
± gives the standard deviation of the averaged measurements. Some of the results follow.

Chains of the proteins cited; added tags and fusions are not shown. Lines headed by an entry give the natural chain unless they say otherwise; changes in a name come on top.
UniProt P04179: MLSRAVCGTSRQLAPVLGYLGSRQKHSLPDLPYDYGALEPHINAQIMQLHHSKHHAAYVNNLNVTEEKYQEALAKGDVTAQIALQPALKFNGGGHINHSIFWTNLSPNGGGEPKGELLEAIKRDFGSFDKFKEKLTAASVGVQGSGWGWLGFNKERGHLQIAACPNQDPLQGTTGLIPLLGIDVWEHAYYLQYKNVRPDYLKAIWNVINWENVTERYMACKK
UniProt Q8ND83, whole entry: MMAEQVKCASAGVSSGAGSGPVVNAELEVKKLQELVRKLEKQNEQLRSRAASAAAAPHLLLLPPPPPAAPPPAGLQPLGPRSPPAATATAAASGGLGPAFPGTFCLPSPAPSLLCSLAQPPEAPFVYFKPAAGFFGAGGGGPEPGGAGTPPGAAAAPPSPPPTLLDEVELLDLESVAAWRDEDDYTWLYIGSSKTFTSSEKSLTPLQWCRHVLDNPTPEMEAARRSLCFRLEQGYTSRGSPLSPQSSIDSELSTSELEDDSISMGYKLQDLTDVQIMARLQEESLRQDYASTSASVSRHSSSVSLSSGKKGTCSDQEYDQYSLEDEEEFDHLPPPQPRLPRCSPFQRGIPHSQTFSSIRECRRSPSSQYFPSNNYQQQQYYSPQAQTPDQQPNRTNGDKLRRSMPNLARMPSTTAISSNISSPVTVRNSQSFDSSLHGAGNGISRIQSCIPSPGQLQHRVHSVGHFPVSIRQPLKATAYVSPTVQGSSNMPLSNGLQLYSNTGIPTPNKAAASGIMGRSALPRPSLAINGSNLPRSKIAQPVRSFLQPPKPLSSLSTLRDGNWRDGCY
UniProt Q6PJG2: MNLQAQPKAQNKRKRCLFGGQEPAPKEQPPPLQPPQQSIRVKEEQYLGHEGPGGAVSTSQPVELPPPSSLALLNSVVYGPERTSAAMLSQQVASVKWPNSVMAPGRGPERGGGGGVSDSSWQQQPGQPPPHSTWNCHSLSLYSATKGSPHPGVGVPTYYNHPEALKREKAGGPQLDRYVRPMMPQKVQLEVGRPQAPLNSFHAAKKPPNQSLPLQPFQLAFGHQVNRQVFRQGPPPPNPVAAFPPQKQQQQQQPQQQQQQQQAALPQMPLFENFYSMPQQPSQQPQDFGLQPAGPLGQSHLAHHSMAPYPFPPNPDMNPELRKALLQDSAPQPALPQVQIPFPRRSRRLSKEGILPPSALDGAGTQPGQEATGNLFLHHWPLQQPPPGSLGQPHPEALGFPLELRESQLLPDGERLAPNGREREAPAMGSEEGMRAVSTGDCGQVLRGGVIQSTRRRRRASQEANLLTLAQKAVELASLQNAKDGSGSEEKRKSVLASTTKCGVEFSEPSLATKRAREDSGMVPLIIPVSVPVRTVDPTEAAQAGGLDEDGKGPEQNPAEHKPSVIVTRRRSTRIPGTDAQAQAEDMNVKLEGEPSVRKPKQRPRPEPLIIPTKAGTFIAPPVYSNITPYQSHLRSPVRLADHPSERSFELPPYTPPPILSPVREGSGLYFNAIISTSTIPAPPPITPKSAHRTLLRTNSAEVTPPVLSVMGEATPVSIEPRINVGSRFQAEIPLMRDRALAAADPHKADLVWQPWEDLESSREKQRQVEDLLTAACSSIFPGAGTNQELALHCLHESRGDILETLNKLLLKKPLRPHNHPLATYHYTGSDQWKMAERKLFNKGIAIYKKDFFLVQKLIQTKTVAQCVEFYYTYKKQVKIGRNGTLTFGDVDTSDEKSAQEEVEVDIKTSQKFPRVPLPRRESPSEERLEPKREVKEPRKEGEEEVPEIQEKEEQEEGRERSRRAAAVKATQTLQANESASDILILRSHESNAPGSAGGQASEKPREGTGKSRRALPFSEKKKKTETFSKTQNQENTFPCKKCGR
UniProt Q9NR56: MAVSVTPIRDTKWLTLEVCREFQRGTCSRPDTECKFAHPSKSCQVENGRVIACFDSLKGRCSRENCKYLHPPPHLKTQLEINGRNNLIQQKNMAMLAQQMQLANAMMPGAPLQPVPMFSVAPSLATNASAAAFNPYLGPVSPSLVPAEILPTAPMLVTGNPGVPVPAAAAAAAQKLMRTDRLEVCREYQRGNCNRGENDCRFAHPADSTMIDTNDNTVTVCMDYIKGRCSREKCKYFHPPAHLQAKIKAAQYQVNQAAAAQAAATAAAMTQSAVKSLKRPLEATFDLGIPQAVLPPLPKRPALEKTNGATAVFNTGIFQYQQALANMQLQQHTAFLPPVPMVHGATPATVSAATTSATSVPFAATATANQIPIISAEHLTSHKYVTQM
UniProt P56556, whole entry: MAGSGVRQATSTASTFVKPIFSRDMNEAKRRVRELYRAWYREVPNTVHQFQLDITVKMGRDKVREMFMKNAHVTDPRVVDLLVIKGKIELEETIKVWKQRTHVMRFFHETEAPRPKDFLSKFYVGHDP
UniProt Q9P2K5: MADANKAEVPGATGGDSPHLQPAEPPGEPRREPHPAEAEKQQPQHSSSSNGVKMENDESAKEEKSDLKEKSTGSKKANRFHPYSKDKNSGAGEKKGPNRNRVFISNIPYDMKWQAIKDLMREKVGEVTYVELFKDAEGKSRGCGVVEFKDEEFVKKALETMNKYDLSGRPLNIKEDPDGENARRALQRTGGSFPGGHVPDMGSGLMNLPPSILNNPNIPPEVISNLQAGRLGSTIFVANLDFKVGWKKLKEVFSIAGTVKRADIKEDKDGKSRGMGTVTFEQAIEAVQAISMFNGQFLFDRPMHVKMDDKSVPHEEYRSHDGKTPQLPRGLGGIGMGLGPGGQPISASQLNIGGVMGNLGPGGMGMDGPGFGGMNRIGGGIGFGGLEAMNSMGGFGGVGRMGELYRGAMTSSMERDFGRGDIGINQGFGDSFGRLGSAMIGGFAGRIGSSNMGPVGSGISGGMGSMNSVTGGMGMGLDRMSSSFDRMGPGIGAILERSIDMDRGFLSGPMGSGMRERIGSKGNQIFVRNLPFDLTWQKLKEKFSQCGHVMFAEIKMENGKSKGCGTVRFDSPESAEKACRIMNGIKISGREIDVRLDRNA
UniProt P09211: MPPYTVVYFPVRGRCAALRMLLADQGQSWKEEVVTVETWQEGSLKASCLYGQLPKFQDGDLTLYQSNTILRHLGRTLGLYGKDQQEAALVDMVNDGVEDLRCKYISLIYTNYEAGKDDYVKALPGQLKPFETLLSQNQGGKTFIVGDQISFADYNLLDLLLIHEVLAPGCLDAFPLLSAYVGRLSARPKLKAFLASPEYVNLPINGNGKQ
UniProt P02792: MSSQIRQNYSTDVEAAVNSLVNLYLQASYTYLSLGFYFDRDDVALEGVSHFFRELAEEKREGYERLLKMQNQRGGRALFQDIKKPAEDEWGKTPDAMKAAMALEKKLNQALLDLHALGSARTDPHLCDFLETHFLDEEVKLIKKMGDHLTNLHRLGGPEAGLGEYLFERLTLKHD
UniProt Q8N2M8: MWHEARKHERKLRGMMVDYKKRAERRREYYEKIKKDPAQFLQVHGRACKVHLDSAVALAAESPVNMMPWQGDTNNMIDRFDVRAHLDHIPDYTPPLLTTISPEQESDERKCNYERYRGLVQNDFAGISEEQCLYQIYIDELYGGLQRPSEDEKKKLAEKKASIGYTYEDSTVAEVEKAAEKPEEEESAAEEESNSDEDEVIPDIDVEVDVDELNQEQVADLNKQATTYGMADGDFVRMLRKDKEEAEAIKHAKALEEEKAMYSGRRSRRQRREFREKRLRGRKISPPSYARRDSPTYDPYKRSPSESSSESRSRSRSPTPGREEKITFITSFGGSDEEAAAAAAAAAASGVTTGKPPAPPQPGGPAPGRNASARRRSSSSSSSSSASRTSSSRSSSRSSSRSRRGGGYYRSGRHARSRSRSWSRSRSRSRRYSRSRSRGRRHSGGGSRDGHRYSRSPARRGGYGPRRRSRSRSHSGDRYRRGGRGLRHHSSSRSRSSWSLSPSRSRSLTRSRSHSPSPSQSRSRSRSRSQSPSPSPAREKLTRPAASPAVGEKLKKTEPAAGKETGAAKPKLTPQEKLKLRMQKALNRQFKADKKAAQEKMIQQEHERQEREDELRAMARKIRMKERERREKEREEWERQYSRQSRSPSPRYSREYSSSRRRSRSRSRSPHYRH
UniProt Q6PIU2: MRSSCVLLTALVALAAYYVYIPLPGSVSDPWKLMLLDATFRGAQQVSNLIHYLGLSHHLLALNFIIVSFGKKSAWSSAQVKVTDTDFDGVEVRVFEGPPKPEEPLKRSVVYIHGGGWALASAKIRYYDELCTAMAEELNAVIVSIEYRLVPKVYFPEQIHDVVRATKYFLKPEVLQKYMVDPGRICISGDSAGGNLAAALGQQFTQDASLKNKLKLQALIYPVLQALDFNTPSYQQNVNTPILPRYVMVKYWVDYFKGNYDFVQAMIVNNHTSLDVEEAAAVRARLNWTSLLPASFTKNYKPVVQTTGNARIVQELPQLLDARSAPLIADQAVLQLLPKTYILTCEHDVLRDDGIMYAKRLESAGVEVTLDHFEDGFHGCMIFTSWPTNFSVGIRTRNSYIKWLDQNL
UniProt O75955: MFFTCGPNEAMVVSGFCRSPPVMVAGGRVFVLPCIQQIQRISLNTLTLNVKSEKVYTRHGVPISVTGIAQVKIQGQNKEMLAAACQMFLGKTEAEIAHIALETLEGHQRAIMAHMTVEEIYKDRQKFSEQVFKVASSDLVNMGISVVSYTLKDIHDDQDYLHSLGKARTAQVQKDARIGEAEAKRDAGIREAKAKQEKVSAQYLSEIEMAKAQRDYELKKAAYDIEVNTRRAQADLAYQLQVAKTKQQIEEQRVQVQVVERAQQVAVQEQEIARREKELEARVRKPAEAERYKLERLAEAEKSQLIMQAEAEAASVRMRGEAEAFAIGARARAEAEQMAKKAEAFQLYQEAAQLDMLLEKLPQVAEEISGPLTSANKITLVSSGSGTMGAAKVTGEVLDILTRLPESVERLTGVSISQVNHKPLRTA
UniProt C4AMC7: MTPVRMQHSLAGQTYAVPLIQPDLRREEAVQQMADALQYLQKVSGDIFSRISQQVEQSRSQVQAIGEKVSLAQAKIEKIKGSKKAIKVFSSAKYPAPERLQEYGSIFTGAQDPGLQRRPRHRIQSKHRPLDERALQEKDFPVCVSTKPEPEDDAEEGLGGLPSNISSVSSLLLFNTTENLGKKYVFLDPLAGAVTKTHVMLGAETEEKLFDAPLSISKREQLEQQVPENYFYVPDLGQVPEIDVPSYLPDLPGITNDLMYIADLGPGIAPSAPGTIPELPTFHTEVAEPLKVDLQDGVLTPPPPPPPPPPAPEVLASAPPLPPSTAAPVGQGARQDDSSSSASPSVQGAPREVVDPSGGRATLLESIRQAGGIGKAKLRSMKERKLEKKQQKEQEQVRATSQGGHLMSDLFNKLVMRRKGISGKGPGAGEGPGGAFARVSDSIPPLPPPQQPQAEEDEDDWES
UniProt Q9NP73: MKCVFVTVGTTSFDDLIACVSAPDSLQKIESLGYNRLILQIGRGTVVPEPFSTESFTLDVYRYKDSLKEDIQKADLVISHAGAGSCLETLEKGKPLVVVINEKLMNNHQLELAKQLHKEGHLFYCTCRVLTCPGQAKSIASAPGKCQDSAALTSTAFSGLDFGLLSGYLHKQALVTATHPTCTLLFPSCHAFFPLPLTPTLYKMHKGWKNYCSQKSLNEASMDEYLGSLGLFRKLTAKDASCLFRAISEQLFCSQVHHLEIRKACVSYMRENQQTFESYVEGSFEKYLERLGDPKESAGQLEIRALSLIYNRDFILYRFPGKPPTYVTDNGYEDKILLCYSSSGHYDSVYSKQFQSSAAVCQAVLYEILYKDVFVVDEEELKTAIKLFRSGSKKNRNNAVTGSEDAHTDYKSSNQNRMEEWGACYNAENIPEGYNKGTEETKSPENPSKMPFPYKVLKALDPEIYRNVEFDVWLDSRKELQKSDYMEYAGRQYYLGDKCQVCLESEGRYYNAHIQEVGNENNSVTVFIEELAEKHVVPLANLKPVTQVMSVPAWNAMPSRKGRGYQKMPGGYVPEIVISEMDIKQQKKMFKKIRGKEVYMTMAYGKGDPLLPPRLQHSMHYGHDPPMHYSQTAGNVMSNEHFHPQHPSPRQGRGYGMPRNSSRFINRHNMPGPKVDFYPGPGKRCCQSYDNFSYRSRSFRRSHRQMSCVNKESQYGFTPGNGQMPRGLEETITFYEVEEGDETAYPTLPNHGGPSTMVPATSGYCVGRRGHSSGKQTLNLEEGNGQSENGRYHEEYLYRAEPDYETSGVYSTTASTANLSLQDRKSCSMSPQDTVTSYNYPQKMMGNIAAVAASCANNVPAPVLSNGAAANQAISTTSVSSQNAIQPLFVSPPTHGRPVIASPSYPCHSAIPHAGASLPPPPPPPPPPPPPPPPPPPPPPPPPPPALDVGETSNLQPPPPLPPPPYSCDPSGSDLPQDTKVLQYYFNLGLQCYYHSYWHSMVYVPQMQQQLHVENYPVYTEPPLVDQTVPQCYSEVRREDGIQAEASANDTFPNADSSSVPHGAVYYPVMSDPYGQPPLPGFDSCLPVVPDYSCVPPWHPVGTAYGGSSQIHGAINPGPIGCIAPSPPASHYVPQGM

Compound: Nc1nc2c(ncn2[C@@H]2O[C@H](COP(=O)(O)OP(=O)(O)OP(=O)(O)O)[C@@H](O)[C@H]2O)c(=O)[nH]1 [guanosine triphosphate]
Assay: NP40-soluble protein abundance relative to vehicle (solubility fold change) (ratio); higher = more soluble protein in presence of GTP
Procedure, shortened: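 Data come from three independent experiments in which Dounce-homogenised Jurkat crude lysate was treated at eight concentrations from 0.1 to 10 mM. Treatment ran 10 min at room temperature and then 3 min at 37 °C, after which 0.8% NP40 and benzonase were added for 60 min at 4 °C before ultracentrifugation. The supernatant underwent TMT labelling and LC-MS/MS, and vsn-normalised intensities were expressed as fold change against the detergent-processed vehicle in each replicate.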

A0A0C4DH44|P62888 (UniProt P62888)
NP40-soluble protein abundance (concentration: 0.1mM): 0.94 ± 0.043
NP40-soluble protein abundance (concentration: 0.5mM): 0.936 ± 0.056
NP40-soluble protein abundance (concentration: 1mM): 0.983 ± 0.067
NP40-soluble protein abundance (concentration: 2mM): 0.997 ± 0.083
NP40-soluble protein abundance (concentration: 4mM): 0.944 ± 0.14
NP40-soluble protein abundance (concentration: 6mM): 0.946 ± 0.14
NP40-soluble protein abundance (concentration: 8mM): 0.794 ± 0.054
NP40-soluble protein abundance (concentration: 10mM): 0.985 ± 0.14

A0A0C4DFU2|P04179 and related entries (UniProt P04179)
NP40-soluble protein abundance (concentration: 0.1mM): 0.85 ± 0.056
NP40-soluble protein abundance (concentration: 0.5mM): 0.843 ± 0.071
NP40-soluble protein abundance (concentration: 1mM): 0.851 ± 0.071
NP40-soluble protein abundance (concentration: 2mM): 0.839 ± 0.043
NP40-soluble protein abundance (concentration: 4mM): 0.814 ± 0.045
NP40-soluble protein abundance (concentration: 6mM): 0.823 ± 0.052
NP40-soluble protein abundance (concentration: 8mM): 0.734 ± 0.073
NP40-soluble protein abundance (concentration: 10mM): 0.776 ± 0.07

A0A087WXM6|A0A0A6YYL6|J3KRX5 and related entries (UniProt P18621)
NP40-soluble protein abundance (concentration: 0.1mM): 0.938 ± 0.04
NP40-soluble protein abundance (concentration: 0.5mM): 1.02 ± 0.073
NP40-soluble protein abundance (concentration: 1mM): 1.02 ± 0.11
NP40-soluble protein abundance (concentration: 2mM): 0.933 ± 0.11
NP40-soluble protein abundance (concentration: 4mM): 0.877 ± 0.15
NP40-soluble protein abundance (concentration: 6mM): 0.876 ± 0.15
NP40-soluble protein abundance (concentration: 8mM): 0.771 ± 0.16
NP40-soluble protein abundance (concentration: 10mM): 0.867 ± 0.14

A0A0A0MSS3|Q8ND83 (UniProt Q8ND83)
NP40-soluble protein abundance (concentration: 0.1mM): 1 ± 0.017
NP40-soluble protein abundance (concentration: 0.5mM): 1.06 ± 0.067
NP40-soluble protein abundance (concentration: 1mM): 1.09 ± 0.036
NP40-soluble protein abundance (concentration: 2mM): 1.09 ± 0.02
NP40-soluble protein abundance (concentration: 4mM): 1.06 ± 0.076
NP40-soluble protein abundance (concentration: 6mM): 1.04 ± 0.034
NP40-soluble protein abundance (concentration: 8mM): 1.04 ± 0.04
NP40-soluble protein abundance (concentration: 10mM): 1.09 ± 0.081

A0A0A0MSU2|Q6PJG2 (UniProt Q6PJG2)
NP40-soluble protein abundance (concentration: 0.1mM): 1.06 ± 0.035
NP40-soluble protein abundance (concentration: 0.5mM): 1.12 ± 0.068
NP40-soluble protein abundance (concentration: 1mM): 1.08 ± 0.071
NP40-soluble protein abundance (concentration: 2mM): 1.1 ± 0.07
NP40-soluble protein abundance (concentration: 4mM): 1.07 ± 0.041
NP40-soluble protein abundance (concentration: 6mM): 1.07 ± 0.045
NP40-soluble protein abundance (concentration: 8mM): 1.13 ± 0.095
NP40-soluble protein abundance (concentration: 10mM): 1.14 ± 0.04

A0A0A0MQX8|C9JP00 and related entries (UniProt Q9NR56)
NP40-soluble protein abundance (concentration: 0.1mM): 0.894 ± 0.052
NP40-soluble protein abundance (concentration: 0.5mM): 0.869 ± 0.017
NP40-soluble protein abundance (concentration: 1mM): 0.977 ± 0.05
NP40-soluble protein abundance (concentration: 2mM): 0.946 ± 0.032
NP40-soluble protein abundance (concentration: 4mM): 0.921 ± 0.039
NP40-soluble protein abundance (concentration: 6mM): 0.928 ± 0.072
NP40-soluble protein abundance (concentration: 8mM): 0.913 ± 0.06
NP40-soluble protein abundance (concentration: 10mM): 0.955 ± 0.03

A0A0C4DG17|C9J9K3 and related entries (UniProt P08865)
NP40-soluble protein abundance (concentration: 0.1mM): 0.957 ± 0.064
NP40-soluble protein abundance (concentration: 0.5mM): 1 ± 0.067
NP40-soluble protein abundance (concentration: 1mM): 1.02 ± 0.12
NP40-soluble protein abundance (concentration: 2mM): 0.959 ± 0.14
NP40-soluble protein abundance (concentration: 4mM): 0.901 ± 0.21
NP40-soluble protein abundance (concentration: 6mM): 0.867 ± 0.2
NP40-soluble protein abundance (concentration: 8mM): 0.801 ± 0.17
NP40-soluble protein abundance (concentration: 10mM): 0.833 ± 0.2

A0A0C4DGS0|P56556 (UniProt P56556)
NP40-soluble protein abundance (concentration: 0.1mM): 0.947 ± 0.069
NP40-soluble protein abundance (concentration: 0.5mM): 0.934 ± 0.051
NP40-soluble protein abundance (concentration: 1mM): 1.05 ± 0.1
NP40-soluble protein abundance (concentration: 2mM): 1.08 ± 0.12
NP40-soluble protein abundance (concentration: 4mM): 1.09 ± 0.17
NP40-soluble protein abundance (concentration: 6mM): 1.02 ± 0.093
NP40-soluble protein abundance (concentration: 8mM): 0.939 ± 0.064
NP40-soluble protein abundance (concentration: 10mM): 1.01 ± 0.1

A0A0A0MR39|Q9P2K5-3 (UniProt Q9P2K5)
NP40-soluble protein abundance (concentration: 0.1mM): 0.967 ± 0.066
NP40-soluble protein abundance (concentration: 0.5mM): 1.06 ± 0.045
NP40-soluble protein abundance (concentration: 1mM): 1.11 ± 0.039
NP40-soluble protein abundance (concentration: 2mM): 1.13 ± 0.041
NP40-soluble protein abundance (concentration: 4mM): 1.15 ± 0.078
NP40-soluble protein abundance (concentration: 6mM): 1.17 ± 0.025
NP40-soluble protein abundance (concentration: 8mM): 1.19 ± 0.076
NP40-soluble protein abundance (concentration: 10mM): 1.19 ± 0.1

A0A087X243|P09211 (UniProt P09211)
NP40-soluble protein abundance (concentration: 0.1mM): 0.888 ± 0.067
NP40-soluble protein abundance (concentration: 0.5mM): 0.947 ± 0.071
NP40-soluble protein abundance (concentration: 1mM): 0.841 ± 0.064
NP40-soluble protein abundance (concentration: 2mM): 0.83 ± 0.031
NP40-soluble protein abundance (concentration: 4mM): 0.792 ± 0.053
NP40-soluble protein abundance (concentration: 6mM): 0.817 ± 0.044
NP40-soluble protein abundance (concentration: 8mM): 0.763 ± 0.084
NP40-soluble protein abundance (concentration: 10mM): 0.783 ± 0.073

A0A087X1B9|P02792 (UniProt P02792)
NP40-soluble protein abundance (concentration: 0.1mM): 1.09 ± 0.16
NP40-soluble protein abundance (concentration: 0.5mM): 1.03 ± 0.21
NP40-soluble protein abundance (concentration: 1mM): 1.44 ± 0.11
NP40-soluble protein abundance (concentration: 2mM): 1.55 ± 0.054
NP40-soluble protein abundance (concentration: 4mM): 1.64 ± 0.14
NP40-soluble protein abundance (concentration: 6mM): 1.465 ± 0.0048
NP40-soluble protein abundance (concentration: 8mM): 1.43 ± 0.17
NP40-soluble protein abundance (concentration: 10mM): 1.68 ± 0.12

A0A0A0MQS2|F5H0Q6 (UniProt Q8N2M8)
NP40-soluble protein abundance (concentration: 0.1mM): 1.06 ± 0.13
NP40-soluble protein abundance (concentration: 0.5mM): 1.02 ± 0.11
NP40-soluble protein abundance (concentration: 1mM): 1.09 ± 0.15
NP40-soluble protein abundance (concentration: 2mM): 1.08 ± 0.18
NP40-soluble protein abundance (concentration: 4mM): 1.14 ± 0.19
NP40-soluble protein abundance (concentration: 6mM): 1.1 ± 0.059
NP40-soluble protein abundance (concentration: 8mM): 1.19 ± 0.15
NP40-soluble protein abundance (concentration: 10mM): 1.19 ± 0.14

A0A0A0MTJ9|A0A0R4J2G3|Q6PIU2 and related entries (UniProt Q6PIU2)
NP40-soluble protein abundance (concentration: 0.1mM): 0.928 ± 0.1
NP40-soluble protein abundance (concentration: 0.5mM): 0.975 ± 0.095
NP40-soluble protein abundance (concentration: 1mM): 0.919 ± 0.096
NP40-soluble protein abundance (concentration: 2mM): 0.922 ± 0.09
NP40-soluble protein abundance (concentration: 4mM): 0.917 ± 0.13
NP40-soluble protein abundance (concentration: 6mM): 0.882 ± 0.12
NP40-soluble protein abundance (concentration: 8mM): 0.889 ± 0.11
NP40-soluble protein abundance (concentration: 10mM): 0.921 ± 0.086

A0A0A0MTL5|Q13309 and related entries (UniProt Q13309)
NP40-soluble protein abundance (concentration: 0.1mM): 1.12 ± 0.076
NP40-soluble protein abundance (concentration: 0.5mM): 1.04 ± 0.096
NP40-soluble protein abundance (concentration: 1mM): 1.02 ± 0.075
NP40-soluble protein abundance (concentration: 2mM): 0.981 ± 0.074
NP40-soluble protein abundance (concentration: 4mM): 0.951 ± 0.07
NP40-soluble protein abundance (concentration: 6mM): 0.958 ± 0.08
NP40-soluble protein abundance (concentration: 8mM): 0.911 ± 0.044
NP40-soluble protein abundance (concentration: 10mM): 0.855 ± 0.069

A0A140T9R1|O75955 (UniProt O75955)
NP40-soluble protein abundance (concentration: 0.1mM): 1.04 ± 0.045
NP40-soluble protein abundance (concentration: 0.5mM): 1.09 ± 0.021
NP40-soluble protein abundance (concentration: 1mM): 1.07 ± 0.045
NP40-soluble protein abundance (concentration: 2mM): 1.15 ± 0.13
NP40-soluble protein abundance (concentration: 4mM): 1.26 ± 0.27
NP40-soluble protein abundance (concentration: 6mM): 1.19 ± 0.29
NP40-soluble protein abundance (concentration: 8mM): 1.27 ± 0.28
NP40-soluble protein abundance (concentration: 10mM): 1.2 ± 0.26

A0A096LP75|C4AMC7 and related entries (UniProt Q6VEQ5+C4AMC7)
NP40-soluble protein abundance (concentration: 0.1mM): 0.9598 ± 0.002
NP40-soluble protein abundance (concentration: 0.5mM): 0.905 ± 0.034
NP40-soluble protein abundance (concentration: 1mM): 1.06 ± 0.091
NP40-soluble protein abundance (concentration: 2mM): 1.019 ± 0.0057
NP40-soluble protein abundance (concentration: 4mM): 0.989 ± 0.011
NP40-soluble protein abundance (concentration: 6mM): 1.062 ± 0.0092
NP40-soluble protein abundance (concentration: 8mM): 1.03 ± 0.13
NP40-soluble protein abundance (concentration: 10mM): 1 ± 0.052

A0A087X1I8|Q7Z3E5 and related entries (UniProt Q7Z3E5)
NP40-soluble protein abundance (concentration: 0.1mM): 1.01 ± 0.049
NP40-soluble protein abundance (concentration: 0.5mM): 1.05 ± 0.042
NP40-soluble protein abundance (concentration: 1mM): 0.999 ± 0.028
NP40-soluble protein abundance (concentration: 2mM): 0.977 ± 0.051
NP40-soluble protein abundance (concentration: 4mM): 0.963 ± 0.051
NP40-soluble protein abundance (concentration: 6mM): 0.934 ± 0.052
NP40-soluble protein abundance (concentration: 8mM): 0.95 ± 0.052
NP40-soluble protein abundance (concentration: 10mM): 0.974 ± 0.039

A0A096LP10|Q9NP73-2 (UniProt Q9NP73)
NP40-soluble protein abundance (concentration: 0.1mM): 1.04 ± 0.1
NP40-soluble protein abundance (concentration: 0.5mM): 0.989 ± 0.02
NP40-soluble protein abundance (concentration: 1mM): 1.02 ± 0.06
NP40-soluble protein abundance (concentration: 2mM): 0.89 ± 0.077
NP40-soluble protein abundance (concentration: 4mM): 0.999 ± 0.12
NP40-soluble protein abundance (concentration: 6mM): 0.896 ± 0.053
NP40-soluble protein abundance (concentration: 8mM): 0.985 ± 0.1
NP40-soluble protein abundance (concentration: 10mM): 0.887 ± 0.022
